Data published in article PMC9121072.
Results are given in words; binding and its absence hold for the method and conditions named. A result given as binding can be weak or reduced; the word gives no strength. Where a sequence is shown, tags or fusion partners need not be part of it. For some assays here: In cells and extracts the contact can be indirect.

Assays:
[1] = biological target: OsMKK1 (mitogen-activated protein kinase kinase from rice), pGBKT7 fusion (rice (Oryza sativa)); test: two-hybrid; Matchmaker Gold Yeast Two-Hybrid System; OsMKK1 in pGBKT7, BURP proteins in pGAD-T7, co-transformed into Y2H Gold; growth on SD/-Leu/-Trp/-His and SD/-Leu/-Trp/-His/-Ade at 30°C for 3-5 days
[2] = biological target: OsMKK1 fused to cEYFP (rice (Oryza sativa)); test: split reporter; BiFC in tobacco (N. benthamiana) leaves; bait with cYFP (OsMKK1), prey with nYFP (OsBURP3, PpBURP2); agroinfiltration, fluorescence examined after 48 h

B1: OsBURP3 (BURP domain-containing protein 3 from rice), pGAD-T7 fusion (protein, UniProt Q942D4 1-429)
chain: MDRLLACLLGFLLIASVGSHAARTPEQYWKSALPNSPIPSSLSQLLSTAGGGTSVNVGGGGVHVDAGHGKPGGTTVDVGKGGVGVNVKPGYGKPGGTTVGVGKGGVGVNVKPGYGKPGGTSVGVGKGGVGVNVQPGYGKPGGTTVGVGKGGVGVNVQPGYGKPGGTTVGVGKGGVGVNVKPRGKPVHVNVAPFIYNYAATETQLHDDPNVALFFLEKDLHPGKTMAVHFTATTAGEKFLPRSEADAMPFSSEKVPEILSRFSVKPGSVEAAEMAQTLRDCEAPPAQGERKACATSLESMVDFATSSLGTSHVRAASTVVGKEGSPEQEYTVTAVKRAAAGGDQDQLVACHAEPYAYAVFACHLTRATRAYAVSMAGRDGTGVEAVAVCHADTAGWNPKHVAFQVLKVKPGTVPVCHFLPQDHVVWTRSG
With B1 the binding [1] was “binds”.

B2: OsBURP3 fused to nEYFP (protein, UniProt Q942D4 22-429)
chain: ARTPEQYWKSALPNSPIPSSLSQLLSTAGGGTSVNVGGGGVHVDAGHGKPGGTTVDVGKGGVGVNVKPGYGKPGGTTVGVGKGGVGVNVKPGYGKPGGTSVGVGKGGVGVNVQPGYGKPGGTTVGVGKGGVGVNVQPGYGKPGGTTVGVGKGGVGVNVKPRGKPVHVNVAPFIYNYAATETQLHDDPNVALFFLEKDLHPGKTMAVHFTATTAGEKFLPRSEADAMPFSSEKVPEILSRFSVKPGSVEAAEMAQTLRDCEAPPAQGERKACATSLESMVDFATSSLGTSHVRAASTVVGKEGSPEQEYTVTAVKRAAAGGDQDQLVACHAEPYAYAVFACHLTRATRAYAVSMAGRDGTGVEAVAVCHADTAGWNPKHVAFQVLKVKPGTVPVCHFLPQDHVVWTRSG
In the case of B2, the binding [2] is reported as “binds”.
